Laboratory results from US20260243776A1, “A METHOD FOR DETECTING PROTEIN TARGETS OF AN ENZYME USING A BIOTIN LIGASE” (Leibniz-Institut für Alternsforschung - …, priority 2022, published 2026).
These are yes or no findings as the source states them, for the method shown. Some binding calls cover weakened binding; strength is not graded here.

Protein sequences, listed by entry. Tags and fused reporters are not part of them. Residues count along the entry.
UniProt O43426: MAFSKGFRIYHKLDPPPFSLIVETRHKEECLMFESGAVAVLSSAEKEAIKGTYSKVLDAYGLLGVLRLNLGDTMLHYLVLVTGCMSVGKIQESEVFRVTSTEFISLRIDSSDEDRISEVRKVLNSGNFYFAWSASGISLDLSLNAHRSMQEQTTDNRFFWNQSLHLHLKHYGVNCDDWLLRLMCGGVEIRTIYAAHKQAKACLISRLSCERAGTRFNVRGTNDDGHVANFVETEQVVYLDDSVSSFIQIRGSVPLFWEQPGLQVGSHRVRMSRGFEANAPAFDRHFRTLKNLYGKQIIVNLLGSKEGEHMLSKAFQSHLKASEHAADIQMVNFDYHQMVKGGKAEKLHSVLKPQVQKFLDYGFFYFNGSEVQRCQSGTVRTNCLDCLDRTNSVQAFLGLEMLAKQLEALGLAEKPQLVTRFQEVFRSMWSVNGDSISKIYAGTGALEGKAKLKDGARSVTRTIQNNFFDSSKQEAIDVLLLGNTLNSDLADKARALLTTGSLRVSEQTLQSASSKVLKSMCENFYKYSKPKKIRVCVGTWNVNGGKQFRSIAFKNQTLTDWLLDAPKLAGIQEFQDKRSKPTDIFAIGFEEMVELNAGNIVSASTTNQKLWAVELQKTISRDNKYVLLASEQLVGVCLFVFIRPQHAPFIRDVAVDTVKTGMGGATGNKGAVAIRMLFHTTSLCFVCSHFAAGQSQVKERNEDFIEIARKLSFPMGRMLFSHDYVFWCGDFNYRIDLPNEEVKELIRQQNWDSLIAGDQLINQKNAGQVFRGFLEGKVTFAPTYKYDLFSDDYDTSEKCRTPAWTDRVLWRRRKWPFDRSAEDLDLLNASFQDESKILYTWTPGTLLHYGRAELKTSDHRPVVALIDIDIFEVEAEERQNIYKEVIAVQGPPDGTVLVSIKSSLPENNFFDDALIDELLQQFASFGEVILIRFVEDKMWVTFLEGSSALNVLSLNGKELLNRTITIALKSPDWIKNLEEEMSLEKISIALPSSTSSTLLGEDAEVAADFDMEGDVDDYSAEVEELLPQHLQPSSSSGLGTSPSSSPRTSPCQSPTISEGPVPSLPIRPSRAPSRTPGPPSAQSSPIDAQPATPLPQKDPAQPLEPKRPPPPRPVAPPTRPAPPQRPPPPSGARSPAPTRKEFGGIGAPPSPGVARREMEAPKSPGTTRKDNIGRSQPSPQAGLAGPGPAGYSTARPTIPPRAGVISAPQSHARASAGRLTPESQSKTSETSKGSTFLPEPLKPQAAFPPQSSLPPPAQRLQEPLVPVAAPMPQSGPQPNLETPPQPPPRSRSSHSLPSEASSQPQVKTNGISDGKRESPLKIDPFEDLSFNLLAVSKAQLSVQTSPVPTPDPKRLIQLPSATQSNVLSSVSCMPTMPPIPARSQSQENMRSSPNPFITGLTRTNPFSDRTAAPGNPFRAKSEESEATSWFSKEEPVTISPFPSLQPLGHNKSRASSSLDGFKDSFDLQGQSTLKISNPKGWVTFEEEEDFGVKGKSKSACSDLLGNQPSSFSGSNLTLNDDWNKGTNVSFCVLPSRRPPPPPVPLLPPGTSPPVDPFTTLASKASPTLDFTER
UniProt P32019, residues 1-990: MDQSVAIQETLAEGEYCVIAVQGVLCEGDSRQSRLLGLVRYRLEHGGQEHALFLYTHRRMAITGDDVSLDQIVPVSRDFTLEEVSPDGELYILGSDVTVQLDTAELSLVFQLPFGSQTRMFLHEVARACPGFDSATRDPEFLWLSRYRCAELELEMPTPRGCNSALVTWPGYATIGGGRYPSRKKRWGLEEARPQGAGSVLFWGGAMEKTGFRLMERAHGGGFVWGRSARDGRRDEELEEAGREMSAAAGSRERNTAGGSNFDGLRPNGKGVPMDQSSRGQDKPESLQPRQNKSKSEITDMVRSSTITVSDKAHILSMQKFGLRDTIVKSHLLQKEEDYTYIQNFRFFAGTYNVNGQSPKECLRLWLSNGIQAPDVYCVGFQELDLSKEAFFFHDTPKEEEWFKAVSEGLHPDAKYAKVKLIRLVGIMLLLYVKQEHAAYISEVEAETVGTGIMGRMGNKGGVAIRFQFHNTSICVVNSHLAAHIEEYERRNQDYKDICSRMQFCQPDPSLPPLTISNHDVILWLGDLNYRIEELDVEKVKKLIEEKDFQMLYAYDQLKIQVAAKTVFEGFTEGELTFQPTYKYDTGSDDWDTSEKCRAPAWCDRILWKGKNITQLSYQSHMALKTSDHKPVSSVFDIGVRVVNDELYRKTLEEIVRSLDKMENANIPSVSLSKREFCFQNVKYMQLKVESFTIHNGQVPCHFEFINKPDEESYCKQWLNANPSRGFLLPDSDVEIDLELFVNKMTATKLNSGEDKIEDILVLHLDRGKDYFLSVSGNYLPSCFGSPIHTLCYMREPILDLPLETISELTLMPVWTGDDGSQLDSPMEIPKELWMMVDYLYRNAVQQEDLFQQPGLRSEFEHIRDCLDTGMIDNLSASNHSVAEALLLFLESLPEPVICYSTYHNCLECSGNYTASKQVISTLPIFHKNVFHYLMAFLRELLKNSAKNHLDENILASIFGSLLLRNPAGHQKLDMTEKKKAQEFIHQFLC

Molecular target: Synaptojanin 1 (SYNJ1) (human) (UniProt O43426)
Experiment: BioID in HEK293T cells with BirA*-tagged SYNJ1 (which of the two fusions is not said)

binding: binds
Substance: INPP5B (HEK293T cells) (from UniProt P32019 1-990) (enzyme)
